Results taken from the supplement of paper PMC6078165.
± gives the standard deviation of the averaged measurements. Values are relative to the signal before dosing, not to a vehicle control; the signal also falls without drug.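 Fibroblast labels name human fibroblasts: mostly primary ones from tissues such as uterus (C12385, HUF), lung (H6013), bone (Hs27A), adrenal (HADF) and skin (WS1), plus mammary HMF and breast cancer-associated Hs343T. The cancer cells are basal-like or mesenchymal-like triple-negative breast cancer lines. The paper calls a changed response a hit when it shifts by more than 3x the replicate standard deviation. The tissue of the other fibroblasts is not given here.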

System: BT20
Experiment: relative JC-1 red fluorescence (viability) vs pre-drug, coculture with fibroblast (fraction); higher = more viable cancer cells
Experimental: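 JC-1 labelled TNBC cells cocultured 1:1 (1,500 cells each) with CellTrace Violet stained primary or stromal fibroblasts in 384-well plates in FluoroBrite medium, treated with one of 42 anticancer drugs at 0.1, 1, 10 or 100 uM. JC-1 red fluorescence (mitochondrial integrity in cancer cells only) was read by plate reader every 8 h for 72 h. Values are normalised to each well's pre-drug value. The stock of one drug was tenfold lower, so its dose labels may be too high.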

CN(Cc1cnc2nc(N)nc(N)c2n1)c1ccc(C(=O)N[C@@H](CCC(=O)O)C(=O)O)cc1 [Methotrexate]
relative JC-1 red fluorescence
Details | 8 h | 16 h | 24 h | 32 h | 40 h | 48 h | 56 h | 64 h | 72 h
0.1 µM, coculture fibroblast: C12385 | 0.9125 ± 0.0078 | 0.822 ± 0.024 | 0.78 ± 0.028 | 0.716 ± 0.015 | 0.661 ± 0.027 | 0.639 ± 0.025 | 0.622 ± 0.02 | 0.611 ± 0.01 | 0.601 ± 0.021
0.1 µM, coculture fibroblast: H6013 | 0.939 ± 0.018 | 0.8766 ± 0.0035 | 0.858 ± 0.043 | 0.824 ± 0.056 | 0.791 ± 0.08 | 0.781 ± 0.081 | 0.793 ± 0.097 | 0.789 ± 0.094 | 0.777 ± 0.095
0.1 µM, coculture fibroblast: H6019 | 0.8549 ± 0.007 | 0.766 ± 0.018 | 0.747 ± 0.015 | 0.688 ± 0.015 | 0.6442 ± 0.0029 | 0.6286 ± 0.0038 | 0.5998 ± 0.0015 | 0.5833 ± 0.0028 | 0.5746 ± 0.004
0.1 µM, coculture fibroblast: H6076 | 0.858 ± 0.12 | 0.897 ± 0.021 | 0.829 ± 0.018 | 0.7883 ± 0.0045 | 0.755 ± 0.015 | 0.729 ± 0.019 | 0.727 ± 0.022 | 0.726 ± 0.032 | 0.714 ± 0.046
0.1 µM, coculture fibroblast: H6231 | 0.877 ± 0.031 | 0.945 ± 0.041 | 0.818 ± 0.023 | 0.742 ± 0.016 | 0.691 ± 0.02 | 0.648 ± 0.014 | 0.608 ± 0.01 | 0.588 ± 0.013 | 0.56 ± 0.016
0.1 µM, coculture fibroblast: HADF | 0.787 ± 0.12 | 0.956 ± 0.06 | 0.8796 ± 0.0046 | 0.856 ± 0.035 | 0.869 ± 0.0088 | 0.864 ± 0.043 | 0.8275 ± 0.0066 | 0.844 ± 0.058 | 0.848 ± 0.11
0.1 µM, coculture fibroblast: HCFa | 0.828 ± 0.17 | 0.923 ± 0.074 | 0.913 ± 0.096 | 0.871 ± 0.14 | 0.846 ± 0.19 | 0.828 ± 0.2 | 0.819 ± 0.25 | 0.748 ± 0.21 | 0.691 ± 0.19
0.1 µM, coculture fibroblast: HCPF | 0.916 ± 0.067 | 0.856 ± 0.032 | 0.782 ± 0.034 | 0.736 ± 0.028 | 0.702 ± 0.02 | 0.664 ± 0.016 | 0.6278 ± 0.0012 | 0.6195 ± 0.0022 | 0.592 ± 0.011
0.1 µM, coculture fibroblast: HHSteC | 0.934 ± 0.037 | 0.863 ± 0.058 | 0.844 ± 0.1 | 0.776 ± 0.12 | 0.747 ± 0.14 | 0.718 ± 0.16 | 0.688 ± 0.16 | 0.668 ± 0.16 | 0.642 ± 0.15
0.1 µM, coculture fibroblast: HMF | 0.955 ± 0.022 | 0.861 ± 0.022 | 0.762 ± 0.034 | 0.703 ± 0.044 | 0.656 ± 0.042 | 0.616 ± 0.032 | 0.593 ± 0.052 | 0.564 ± 0.05 | 0.549 ± 0.054
0.1 µM, coculture fibroblast: HPFa | 0.833 ± 0.17 | 0.912 ± 0.078 | 0.884 ± 0.04 | 0.84 ± 0.087 | 0.848 ± 0.12 | 0.83 ± 0.12 | 0.803 ± 0.11 | 0.791 ± 0.092 | 0.757 ± 0.08
0.1 µM, coculture fibroblast: HUF | 0.941 ± 0.016 | 0.84 ± 0.0076 | 0.802 ± 0.014 | 0.718 ± 0.024 | 0.661 ± 0.037 | 0.615 ± 0.037 | 0.591 ± 0.053 | 0.571 ± 0.053 | 0.553 ± 0.058
0.1 µM, coculture fibroblast: Hs5 | 0.916 ± 0.11 | 0.919 ± 0.0051 | 0.857 ± 0.015 | 0.813 ± 0.021 | 0.775 ± 0.024 | 0.743 ± 0.03 | 0.715 ± 0.035 | 0.688 ± 0.043 | 0.675 ± 0.044
0.1 µM, coculture fibroblast: Hs27A | 0.86 ± 0.079 | 0.86 ± 0.17 | 0.905 ± 0.061 | 0.89 ± 0.046 | 0.862 ± 0.067 | 0.84 ± 0.063 | 0.842 ± 0.075 | 0.84 ± 0.081 | 0.824 ± 0.094
0.1 µM, coculture fibroblast: Hs343T | 0.947 ± 0.071 | 0.857 ± 0.061 | 0.763 ± 0.057 | 0.701 ± 0.049 | 0.652 ± 0.035 | 0.607 ± 0.022 | 0.563 ± 0.013 | 0.5545 ± 0.0032 | 0.5271 ± 0.0046
0.1 µM, coculture fibroblast: WS1 | 0.888 ± 0.011 | 0.836 ± 0.031 | 0.79 ± 0.017 | 0.731 ± 0.01 | 0.67 ± 0.0067 | 0.634 ± 0.011 | 0.608 ± 0.0076 | 0.583 ± 0.015 | 0.58 ± 0.013
1 µM, coculture fibroblast: C12385 | 0.9216 ± 0.007 | 0.78 ± 0.04 | 0.735 ± 0.048 | 0.663 ± 0.033 | 0.604 ± 0.048 | 0.576 ± 0.048 | 0.556 ± 0.059 | 0.543 ± 0.053 | 0.537 ± 0.052
1 µM, coculture fibroblast: H6013 | 0.9305 ± 0.006 | 0.829 ± 0.012 | 0.805 ± 0.041 | 0.757 ± 0.036 | 0.726 ± 0.046 | 0.713 ± 0.051 | 0.72 ± 0.05 | 0.714 ± 0.05 | 0.707 ± 0.053
1 µM, coculture fibroblast: H6019 | 0.875 ± 0.034 | 0.794 ± 0.031 | 0.797 ± 0.028 | 0.751 ± 0.03 | 0.715 ± 0.033 | 0.701 ± 0.019 | 0.669 ± 0.0037 | 0.6552 ± 0.0027 | 0.647 ± 0.012
1 µM, coculture fibroblast: H6076 | 0.897 ± 0.058 | 0.829 ± 0.034 | 0.752 ± 0.02 | 0.72 ± 0.015 | 0.694 ± 0.012 | 0.6776 ± 0.0027 | 0.6813 ± 0.0026 | 0.682 ± 0.0025 | 0.679 ± 0.022
1 µM, coculture fibroblast: H6231 | 0.8298 ± 0.0071 | 0.933 ± 0.015 | 0.773 ± 0.021 | 0.701 ± 0.019 | 0.65 ± 0.018 | 0.599 ± 0.0068 | 0.567 ± 0.0016 | 0.537 ± 0.0056 | 0.505 ± 0.0075
1 µM, coculture fibroblast: HADF | 0.97 ± 0.023 | 0.89 ± 0.061 | 0.861 ± 0.09 | 0.816 ± 0.12 | 0.802 ± 0.15 | 0.783 ± 0.18 | 0.778 ± 0.2 | 0.78 ± 0.22 | 0.779 ± 0.26
1 µM, coculture fibroblast: HCFa | 0.905 ± 0.019 | 0.807 ± 0.015 | 0.765 ± 0.018 | 0.703 ± 0.012 | 0.663 ± 0.0088 | 0.6429 ± 0.0064 | 0.618 ± 0.017 | 0.6 ± 0.022 | 0.567 ± 0.024
1 µM, coculture fibroblast: HCPF | 0.87 ± 0.11 | 0.858 ± 0.01 | 0.7855 ± 0.0044 | 0.726 ± 0.0075 | 0.692 ± 0.012 | 0.65 ± 0.023 | 0.617 ± 0.018 | 0.6 ± 0.017 | 0.577 ± 0.015
1 µM, coculture fibroblast: HHSteC | 0.909 ± 0.011 | 0.826 ± 0.039 | 0.804 ± 0.042 | 0.728 ± 0.057 | 0.688 ± 0.066 | 0.656 ± 0.076 | 0.648 ± 0.096 | 0.626 ± 0.1 | 0.609 ± 0.11
1 µM, coculture fibroblast: HMF | 0.974 ± 0.017 | 0.839 ± 0.024 | 0.736 ± 0.028 | 0.667 ± 0.033 | 0.622 ± 0.03 | 0.568 ± 0.029 | 0.542 ± 0.013 | 0.5173 ± 0.0034 | 0.487 ± 0.0096
1 µM, coculture fibroblast: HPFa | 0.958 ± 0.012 | 0.8647 ± 0.006 | 0.8885 ± 0.0069 | 0.819 ± 0.018 | 0.809 ± 0.032 | 0.778 ± 0.04 | 0.769 ± 0.055 | 0.765 ± 0.06 | 0.759 ± 0.077
1 µM, coculture fibroblast: HUF | 0.9196 ± 0.00056 | 0.816 ± 0.017 | 0.7912 ± 0.0052 | 0.719 ± 0.014 | 0.671 ± 0.016 | 0.631 ± 0.016 | 0.604 ± 0.012 | 0.591 ± 0.012 | 0.581 ± 0.028
1 µM, coculture fibroblast: Hs5 | 0.835 ± 0.18 | 0.864 ± 0.027 | 0.8119 ± 0.0015 | 0.7732 ± 0.0019 | 0.739 ± 0.015 | 0.705 ± 0.017 | 0.678 ± 0.016 | 0.659 ± 0.011 | 0.642 ± 0.009
1 µM, coculture fibroblast: Hs27A | 0.742 ± 0.029 | 0.896 ± 0.08 | 0.778 ± 0.12 | 0.901 ± 0.05 | 0.814 ± 0.011 | 0.862 ± 0.073 | 0.854 ± 0.072 | 0.747 ± 0.06 | 0.73 ± 0.052
1 µM, coculture fibroblast: Hs343T | 0.963 ± 0.051 | 0.834 ± 0.013 | 0.74 ± 0.026 | 0.67 ± 0.036 | 0.623 ± 0.035 | 0.577 ± 0.041 | 0.534 ± 0.053 | 0.522 ± 0.061 | 0.496 ± 0.063
1 µM, coculture fibroblast: WS1 | 0.9 ± 0.046 | 0.776 ± 0.015 | 0.796 ± 0.01 | 0.7457 ± 0.0043 | 0.7029 ± 0.0011 | 0.6849 ± 0.0012 | 0.674 ± 0.015 | 0.658 ± 0.02 | 0.668 ± 0.03
